## Drug screen on melanoma cell lines: cell count

Values as published with doi:10.1371/journal.pone.0140310, rounded.

Compounds and concentrations:
sorafenib: CNC(=O)c1cc(Oc2ccc(NC(=O)Nc3ccc(Cl)c(C(F)(F)F)c3)cc2)ccn1 at 2000 nM
selumetinib: Cn1cnc2c(F)c(Nc3ccc(Br)cc3Cl)c(C(=O)NOCCO)cc21 at 75 nM
fludarabine: Nc1nc(F)nc2c1ncn2[C@@H]1O[C@H](CO)[C@@H](O)[C@@H]1O at 1000 nM
PLX4720: CCCS(=O)(=O)Nc1ccc(F)c(C(=O)c2c[nH]c3ncc(Cl)cc23)c1F at 400 nM
vorinostat: O=C(CCCCCCC(=O)Nc1ccccc1)NO at 400 nM
IMD-0354: O=C(Nc1cc(C(F)(F)F)cc(C(F)(F)F)c1)c1cc(Cl)ccc1O at 80 nM
midostaurin: CO[C@@H]1[C@H](N(C)C(=O)c2ccccc2)C[C@H]2O[C@]1(C)n1c3ccccc3c3c4c(c5c6ccccc6n2c5c31)C(=O)NC4 at 400 nM
dorsomorphin: c1cc(-c2cnn3cc(-c4ccc(OCCN5CCCCC5)cc4)cnc23)ccn1 at 2000 nM
BMS-536924: Cc1cc(N2CCOCC2)cc2[nH]c(-c3c(NC[C@@H](O)c4cccc(Cl)c4)cc[nH]c3=O)nc12 at 1000 nM
KU-0063794: COc1ccc(-c2ccc3c(N4CCOCC4)nc(N4C[C@@H](C)O[C@@H](C)C4)nc3n2)cc1CO at 100 nM
MK-2206: NC1(c2ccc(-c3nc4ccn5c(=O)[nH]nc5c4cc3-c3ccccc3)cc2)CCC1 at 2000 nM
NVP-BEZ235: Cn1c(=O)n(-c2ccc(C(C)(C)C#N)cc2)c2c3cc(-c4cnc5ccccc5c4)ccc3ncc21 at 20 nM
FK866: O=C(/C=C/c1cccnc1)NCCCCC1CCN(C(=O)c2ccccc2)CC1 at 50 nM
vismodegib: CS(=O)(=O)c1ccc(C(=O)Nc2ccc(Cl)c(-c3ccccn3)c2)c(Cl)c1 at 5000 nM
veliparib: C[C@]1(c2nc3c(C(N)=O)cccc3[nH]2)CCCN1 at 7000 nM
PF-04217903: OCCn1cc(-c2cnc3nnn(Cc4ccc5ncccc5c4)c3n2)cn1 at 5000 nM
crizotinib: C[C@@H](Oc1cc(-c2cnn(C3CCNCC3)c2)cnc1N)c1c(Cl)ccc(F)c1Cl at 1000 nM
vincristine: CC[C@]1(O)C[C@H]2CN(CCc3c([nH]c4ccccc34)[C@@](C(=O)OC)(c3cc4c(cc3OC)N(C=O)[C@H]3[C@@](O)(C(=O)OC)[C@H](OC(C)=O)[C@]5(CC)C=CCN6CC[C@]43[C@@H]65)C2)C1 at 0.5 nM
tozasertib: Cc1cc(Nc2cc(N3CCN(C)CC3)nc(Sc3ccc(NC(=O)C4CC4)cc3)n2)n[nH]1 at 30 nM
lenalidomide: Nc1cccc2c1CN(C1CCC(=O)NC1=O)C2=O (stereo not given) at 5000 nM

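Human melanoma cell lines in 1,536-well plates were treated with two drugs together for 72 h, then fixed, stained and imaged. Each value is the count of nuclei relative to DMSO-treated wells, in %, so that 100 equals the control. Concentrations were fixed for each drug; these are the higher of two levels. No replicate spread is given; individual values may be noisy.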 Only some of the drugs and lines screened are listed, without regard to their results.

Drugs,WM451Lu,WM3619
IMD-0354 + vincristine,38.5,67.2
MK-2206 + lenalidomide,103,76.1
selumetinib + MK-2206,62.1,42.7
crizotinib + tozasertib,82.7,68.0
MK-2206 + midostaurin,76.9,56.6
fludarabine + vismodegib,99.5,101
crizotinib + MK-2206,70.9,87.0
vincristine + vismodegib,40.0,46.0
BMS-536924 + IMD-0354,96.2,90.0
MK-2206 + BMS-536924,88.9,79.8
vorinostat + PLX4720,60.7,59.5
tozasertib + KU-0063794,97.1,62.8
vincristine + FK866,47.4,81.4
lenalidomide + PF-04217903,99.2,104
dorsomorphin + vincristine,26.8,44.1
PF-04217903 + PLX4720,60.0,70.0
NVP-BEZ235 + MK-2206,66.4,50.8
MK-2206 + dorsomorphin,80.8,66.3
vorinostat + PF-04217903,78.5,76.4
MK-2206 + veliparib,100,79.2
fludarabine + vincristine,60.8,82.5
vismodegib + sorafenib,118,83.3

The first 2 entries again:

| Drugs | WM451Lu | WM3619 |
|---|---|---|
| IMD-0354 + vincristine | 38.5 | 67.2 |
| MK-2206 + lenalidomide | 103 | 76.1 |